Reference: PubChem BioAssay AID504791 (Drosophila RNAi Screening Center, 2011)
The screen tested about 23,000 reagents; this is a random part of those with a known target gene and a result. Over the whole deposit, 199 (0.86%) were called active. 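Plate-scaled ratios behind the calls are not deposited; printed light signals are raw; many rows marked increased or decreased are still called inactive.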 A number with no mark means an inactive call. Reagents against one gene are numbered here. A plus sign joins genes that one reagent is predicted to hit. The record does not give: the direction of the score.

Assay: 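Genes whose knock-down strengthens or weakens small-RNA reporter silencing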 (primary screen)
Cells: Drosophila S2-derived reporter cells
Knock-down reagent: long dsRNA against Drosophila genes, about 150-250 ng dsRNA per well (siRNA assay); about 80-120 ng (miRNA assay)
Duration: about 5 days (siRNA assay); about 4 days (miRNA assay)
Conditions: copper sulfate induction of reporters: 25 µM (siRNA assay); 200 mM stated (miRNA assay), 1-2 days before reading
Measurement: 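Per-well ratio of Renilla over firefly light, expressed relative to that plate's average ratio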
Active means: 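First-pass picks had plate-scaled ratios over 1.5 for the siRNA assay, over 1.6 for the miRNA assay, or under 0.6; two distinct dsRNAs had to score alike on retest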

The opening 3 entries, to show the layout:
| gene | dsRNA no. | stable siRNA reporter change | miRNA reporter change | stable assay Renilla, run 1 (luminescence) | stable assay firefly, run 1 (luminescence) |
| --- | --- | --- | --- | --- | --- |
| msl-2 | 1 | – | – | 17130 | 87876 |
| ChT | 1 | – | – | 8752 | 4.41e5 |
| Usp7 | 1 | – | – | 6319 | 6.08e5 |

Results, from the start:
| gene | dsRNA no. | stable siRNA reporter change | miRNA reporter change | stable assay Renilla, run 1 (luminescence) | stable assay firefly, run 1 (luminescence) |
| --- | --- | --- | --- | --- | --- |
| msl-2 | 1 | – | – | 17130 | 87876 |
| ChT | 1 | – | – | 8752 | 4.41e5 |
| Usp7 | 1 | – | – | 6319 | 6.08e5 |
| Usp7 | 2 | – | – | 3947 | 3.67e5 |
| Pus1 | 1 | – | – | 6868 | 3.39e5 |
| mRpS17 | 1 | – | – | 5674 | 3.61e5 |
| CG43773 | 1 | – | – | 6619 | 4.17e5 |
| CG43773 | 2 | – | – | 7246 | 4.03e5 |
| YME1L | 1 | – | – | 1.13e5 | 2.67e5 |
| CG2528 | 1 | – | – | 6568 | 3.97e5 |
| alpha-Est1 | 1 | – | – | 9789 | 4.69e5 |
| APC7 | 1 | – | – | 7652 | 4.97e5 |
| hid | 1 | – | – | 6796 | 3.90e5 |
| CrebB | 1 | – | – | 2600 | 2.09e5 |
| CG18568 | 1 | – | reporter ratio raised past the hit cutoff | 10247 | 5.24e5 |
| CG18568 | 2 | – | reporter ratio raised past the hit cutoff | – | – |
| Magi | 1 | – | – | 65686 | 6.03e5 |
| Magi | 2 | – | – | 7398 | 5.25e5 |
| CG15393 (retired record) | 1 | – | – | 8437 | 4.58e5 |
| CG31710 | 1 | – | – | 4731 | 3.81e5 |
| CG31710 | 2 | – | – | 5163 | 5.22e5 |
| CG5346 | 1 | – | – | 9503 | 4.92e5 |
| Gmer | 1 | – | – | 44108 | 9.74e5 |
| h-cup + Rbp | 1 | – | – | 6822 | 5.02e5 |
| CG11892 | 1 | – | – | 8953 | 5.65e5 |
| CG10657 | 1 | – | – | 4691 | 3.92e5 |
| Prosbeta5R1 | 1 | – | – | 7182 | 4.31e5 |
| CG32137 | 1 | – | – | 6136 | 4.70e5 |
| CG32137 | 2 | – | – | 5212 | 4.23e5 |
| CG15625 | 1 | – | – | 7351 | 3.69e5 |
| BI-1 | 1 | – | – | 8306 | 5.13e5 |
| CG6761 | 1 | – | – | 8677 | 4.02e5 |
| CG31524 | 1 | – | – | 10170 | 7.67e5 |
| Polr1C | 1 | – | – | 11049 | 7.57e5 |
| Nab2 | 1 | – | – | 10461 | 5.49e5 |
| CG12723 | 1 | – | – | 2487 | 2.78e5 |
| CG31199 | 1 | – | – | 7979 | 3.51e5 |
| Sps1 | 1 | – | – | 6371 | 3.83e5 |
| Cpr65Ax2 + Cpr65Ax1 | 1 | – | – | 6482 | 4.41e5 |
| Cpr65Ax2 + Cpr65Ax1 | 2 | – | – | 6754 | 5.02e5 |
| Men-b | 1 | – | – | 6303 | 3.09e5 |
| CG13473 | 1 | – | – | 7852 | 2.69e5 |
| Hand | 1 | – | – | 7763 | 4.14e5 |
| CG10417 | 1 | – | – | 10382 | 1.80e6 |
| para | 1 | – | – | 4792 | 3.82e5 |
| para | 2 | – | – | 6266 | 5.99e5 |
| Hmt-1 | 1 | – | reporter ratio raised past the hit cutoff | 8490 | 3.96e5 |
| CG17221 | 1 | – | – | 8173 | 5.16e5 |
| bic | 1 | – | reporter ratio raised past the hit cutoff (active) | 7114 | 3.27e5 |
| CR14499 (retired record) | 1 | – | – | 6130 | 2.89e5 |
| Syngr | 1 | – | – | 5908 | 3.17e5 |
| l(2)efl | 1 | – | – | 1.60e5 | 4.13e5 |
| Ldh | 1 | reporter ratio raised past the hit cutoff | – | 5870 | 2.47e5 |
| TbCMF46 | 1 | – | – | 6618 | 3.93e5 |
| CG33330 (retired record) | 1 | – | reporter ratio raised past the hit cutoff | 3324 | 2.59e5 |
| CG33330 (retired record) | 2 | – | – | 7998 | 5.11e5 |
| Adat1 | 1 | – | – | 7315 | 3.46e5 |
| tsl | 1 | – | – | 8327 | 4.27e5 |
| side-IV | 1 | – | – | 6703 | 3.26e5 |
| CG12971 | 1 | – | – | 7147 | 3.39e5 |
| Hnf4 | 1 | – | – | 4952 | 3.16e5 |
| Hnf4 | 2 | – | – | 3707 | 3.46e5 |
| CG10005 | 1 | – | – | 7042 | 3.93e5 |
| Damm | 1 | – | – | 5930 | 3.49e5 |
| CG10209 | 1 | – | – | 8242 | 3.78e5 |
| CG5966 | 1 | – | – | 7346 | 4.10e5 |
| CG10097 + CG10096 | 1 | – | – | 8442 | 4.22e5 |
| CG10097 + CG10096 | 2 | – | – | 6903 | 4.79e5 |
| CG10748 | 1 | – | – | 5312 | 3.14e5 |
| CG13551 | 1 | – | – | 9191 | 7.20e5 |
| Nap1 | 1 | – | – | 24003 | 1.23e6 |
| CG34393 | 1 | – | – | 7375 | 3.42e5 |
| CG34393 | 2 | – | – | 7747 | 3.59e5 |
| Csk | 1 | – | – | 3947 | 2.92e5 |
| Csk | 2 | – | – | 7018 | 2.92e5 |
| Csk | 3 | – | – | 2631 | 2.87e5 |
| Smg5 | 1 | – | – | 9647 | 1.27e6 |
| CG11638 | 1 | – | – | 6675 | 4.00e5 |
| CG11638 | 2 | – | – | 6330 | 3.22e5 |
| CG13064 | 1 | – | – | 7378 | 3.55e5 |
| CG14985 | 1 | – | – | 5220 | 4.68e5 |
| CG14985 | 2 | – | – | 5831 | 3.58e5 |
| CG14868 | 1 | – | – | 4319 | 4.00e5 |
